Assay results taken from PubChem BioAssay AID1259354 (Paczesny and Yang Labs, IUPUI and University of Michigan, 2018).
The whole screen tested about 78,000 compounds, of which about 1,800 (2.3%) were called active. The shares of active, inactive and inconclusive entries below differ from those in the screen. Cut-off read from the data, not from the text of the source: active = inhibition above about 30%; inconclusive = mostly about 10% to 28%; inactive = weaker than that.

Sequences of proteins named here, by UniProt entry; tags and fusion partners are left off. A change or cut given only in a name is not applied to a line headed by its entry.
UniProt Q01638: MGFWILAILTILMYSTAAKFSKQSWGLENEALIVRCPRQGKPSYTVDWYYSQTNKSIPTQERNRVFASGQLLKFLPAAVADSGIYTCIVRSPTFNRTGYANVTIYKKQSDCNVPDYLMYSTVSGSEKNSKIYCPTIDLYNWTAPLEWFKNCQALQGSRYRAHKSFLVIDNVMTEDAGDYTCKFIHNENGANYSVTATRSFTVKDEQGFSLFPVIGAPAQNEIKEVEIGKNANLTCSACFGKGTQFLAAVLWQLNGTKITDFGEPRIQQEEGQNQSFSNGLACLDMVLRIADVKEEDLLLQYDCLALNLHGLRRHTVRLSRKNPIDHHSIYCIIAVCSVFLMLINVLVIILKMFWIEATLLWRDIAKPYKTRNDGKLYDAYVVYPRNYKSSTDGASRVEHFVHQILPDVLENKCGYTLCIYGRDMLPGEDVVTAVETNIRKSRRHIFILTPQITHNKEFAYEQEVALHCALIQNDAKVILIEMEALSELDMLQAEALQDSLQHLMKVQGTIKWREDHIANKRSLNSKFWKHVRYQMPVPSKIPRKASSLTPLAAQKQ

Target: Interleukin-1 receptor-like 1 (Homo sapiens) (UniProt Q01638)
Assay: blocks human ST2 binding to IL-33, primary screen, biochemical, AlphaLISA (AID 1259354)
Conditions: AlphaLISA ST2-Fc/biotin-IL-33 interaction, 1 h; at 17 µM, stronger effect = higher value

Structure (SMILES) | inhibition
CCOc1ccc(N2C(=O)C3CC(C)=C(C)CC3C2=O)cc1 (configuration not stated) | inactive
Cc1ccccc1NC(=O)CCNC(=O)C1COc2ccccc2O1 (configuration not stated) | inactive
CC(C)c1nccn1CCCNC(=O)c1ccc(-c2ccsc2)nc1 | inactive
C=CCc1cc(OC)c(O)c(-c2cc(CC=C)cc(OC)c2O)c1 | active: 41%
CCNC(=O)c1c(NC(=O)C(C)Cn2nc(C)nc2C)sc2c1CCCC2 (configuration not stated) | inactive
CNCC(=O)NC(C)Cc1ncccc1C (configuration not stated) | inconclusive: 23%
Cc1nccn1S(=O)(=O)c1cc(Cl)c(Cl)cc1Cl | inactive
Cc1ccc(-n2c(C)nc3c(cnn3-c3ccc(C)cc3)c2=O)cc1 | inconclusive: 24%
COc1cccc(C)c1C(=O)N1CCN2CCNC(=O)C2C1 (configuration not stated) | inactive
CC(=O)n1cc(/C=C2/N=C(c3ccccc3)OC2=O)c2ccccc21 | active: 61%
Cc1ccccc1-c1ncc(CN2CCn3cncc3C2)s1 | inconclusive: 22%
COc1ccc(NC(=O)Cc2cn(C)c3ccccc23)cc1OC | inconclusive: 12%
CCCCCCCCCCCCCC(=O)O[C@@H]1[C@H](OC(=O)CCCCC)[C@H](OC[C@H](O)[C@H](O)CO)O[C@H](COC(C)=O)[C@H]1OC(C)=O | inconclusive: 22%
COc1ccc(Cn2c(CNC(=O)Cc3ccc(F)cc3)nc3cccnc32)cc1 | inconclusive: 10%
CC1CCCC(NC(=O)c2cc(-c3ccncc3)nc3ccccc23)C1C (configuration not stated) | inconclusive: 19%
CCc1ccc2cc(-c3ccc(F)cc3)cn2c1 | inconclusive: 14%
O=[N+]([O-])c1cccc(C2Oc3ccccc3C3CC(c4ccco4)=NN32)c1 (configuration not stated) | inconclusive: 26%
COc1ccc(C(=O)OC(C)CN(C)C)cc1 (configuration not stated) | inconclusive: 17%
CC(C)C(=O)N1c2ccccc2NC2=C(C(=O)CCC2)C1c1ccc(N(C)C)cc1 (configuration not stated) | inconclusive: 17%
CCOc1ccccc1C1CC(c2ccc(Br)cc2)Nc2nc(N)nn21 (configuration not stated) | inconclusive: 28%
O=C(c1ccc2ncsc2c1)N(C/C=C/c1ccccc1)CCO | inconclusive: 19%
Cc1cccc(C2NC(=O)c3c(sc(C)c3C)N2)c1O (configuration not stated) | inconclusive: 13%
O=C(Nc1c2c(nn1-c1ccccc1)CSC2)c1ccc(Cl)cc1 | inconclusive: 18%
Cc1ccccc1NC(=O)CNC(=O)[C@@H]1C[C@@H](NC(=O)c2cccs2)CN1 | inactive
Cc1cccc(-c2noc([C@@H]3C[C@@H](O)CN3C3CCN(C)CC3)n2)c1 | inconclusive: 23%
Cn1cc(CN(Cc2cccc(-n3cccn3)c2)C2CC2)cn1 | inconclusive: 12%
CCOC(=O)c1c(C)oc2ccc(OC/C=C/c3ccccc3)cc12 | inconclusive: 11%

7 compounds from above, sorted by count of non-hydrogen atoms, rising:
Structure (SMILES) | inhibition
COc1ccc(C(=O)OC(C)CN(C)C)cc1 (configuration not stated) | inconclusive: 17%
Cc1nccn1S(=O)(=O)c1cc(Cl)c(Cl)cc1Cl | inactive
O=C(Nc1c2c(nn1-c1ccccc1)CSC2)c1ccc(Cl)cc1 | inconclusive: 18%
Cc1ccccc1NC(=O)CCNC(=O)C1COc2ccccc2O1 (configuration not stated) | inactive
CCOc1ccccc1C1CC(c2ccc(Br)cc2)Nc2nc(N)nn21 (configuration not stated) | inconclusive: 28%
O=[N+]([O-])c1cccc(C2Oc3ccccc3C3CC(c4ccco4)=NN32)c1 (configuration not stated) | inconclusive: 26%
COc1ccc(Cn2c(CNC(=O)Cc3ccc(F)cc3)nc3cccnc32)cc1 | inconclusive: 10%
